Measurements from ChEMBL document CHEMBL2412957, “Synthesis and SAR of 4-aminocyclopentapyrrolidines as orally active N-type calcium channel inhibitors for inflammatory and neuropathic pain” (Bioorg Med Chem Lett, 2013).
≈ marks a conversion by molar mass, not a printed value.

Assay: Solubility of the compound by chemiluminescent nitrogen detection method

**Q.** With `CC(C)N[C@@H](CC(C)(C)C)C(=O)N[C@H]1CC[C@@H]2CN(S(=O)(=O)c3ccc(C(F)(F)F)cc3)C[C@@H]21` as the compound, how does the solubility read?
**A.** 21 µM (≈ 10.6 µg/mL)
